From PMC4906411
These are yes or no findings as the source states them, for the method shown. Binding seen in cells or lysates may run through a third protein. Some binding calls cover weakened binding; strength is not graded here. Sequences can lack the tags named with a protein.

Target: Flag-PLEKHM1, Q9Y4G2
Experiment: co-IP; HEK293T cells transfected with Flag-PLEKHM1 and HA-VPS41, with HA-RILP or HA-RILPΔ199 co-expressed (attenuated by RILPΔ199); immunoprecipitated for Flag; lysis buffer 0.5% NP-40, 150 mM NaCl, pH 8.0
Settings: remark: other sources report otherwise

binding: binds
B1: HA-VPS41, P49754 1-854 (protein)
chain: MAEAEEQETGSLEESTDESEEEESEEEPKLKYERLSNGVTEILQKDAASCMTVHDKFLALGTHYGKVYLLDVQGNITQKFDVSPVKINQISLDESGEHMGVCSEDGKVQVFGLYSGEEFHETFDCPIKIIAVHPHFVRSSCKQFVTGGKKLLLFERSWMNRWKSAVLHEGEGNIRSVKWRGHLIAWANNMGVKIFDIISKQRITNVPRDDISLRPDMYPCSLCWKDNVTLIIGWGTSVKVCSVKERHASEMRDLPSRYVEIVSQFETEFYISGLAPLCDQLVVLSYVKEISEKTEREYCARPRLDIIQPLSETCEEISSDALTVRGFQENECRDYHLEYSEGESLFYIVSPRDVVVAKERDQDDHIDWLLEKKKYEEALMAAEISQKNIKRHKILDIGLAYINHLVERGDYDIAARKCQKILGKNAALWEYEVYKFKEIGQLKAISPYLPRGDPVLKPLIYEMILHEFLESDYEGFATLIREWPGDLYNNSVIVQAVRDHLKKDSQNKTLLKTLAELYTYDKNYGNALEIYLTLRHKDVFQLIHKHNLFSSIKDKIVLLMDFDSEKAVDMLLDNEDKISIKKVVEELEDRPELQHVYLHKLFKRDHHKGQRYHEKQISLYAEYDRPNLLPFLRDSTHCPLEKALEICQQRNFVEETVYLLSRMGNSRSALKMIMEELHDVDKAIEFAKEQDDGELWEDLILYSIDKPPFITGLLNNIGTHVDPILLIHRIKEGMEIPNLRDSLVKILQDYNLQILLREGCKKILVADSLSLLKKMHRTQMKGVLVDEENICESCLSPILPSDAAKPFSVVVFHCRHMFHKECLPMPSMNSAAQFCNICSAKNRGPGSAILEMKK
